Experimental data published in PMC9579160.

T1: GST-fused ROC15(GARP) (Rhythm Of Chloroplast 15, GARP domain, M377-M445) (C. reinhardtii) (UniProt B1B5J3)
T1 sequence: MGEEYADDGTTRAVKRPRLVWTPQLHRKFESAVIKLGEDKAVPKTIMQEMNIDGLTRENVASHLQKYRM


Assays:
[1] = molecular target: T1, GST-fused ROC15(GARP) (Rhythm Of Chloroplast 15, GARP domain, M377-M445) (C. reinhardtii); assay: pull-down; GST pull-down, dark: same mixture incubated 20 min at room temperature in the dark and loaded on the GST affinity column directly in the dark; eluate on SDS-PAGE; both purified
[2] = molecular target: T1, GST-fused ROC15(GARP) (Rhythm Of Chloroplast 15, GARP domain, M377-M445) (C. reinhardtii); assay: pull-down; GST pull-down, lit: 400 μL of 10 mg/mL His-CraCRY(wt)/PHR/CTE with 400 μL of 3 mg/mL GST-ROC15(GARP), room temperature, 20 min dark, then blue light (450 nm LED) 5 min; GST affinity column, 50 mM HEPES, 150 mM NaCl; eluate on SDS-PAGE; both purified
[3] = molecular target: T1, GST-fused ROC15(GARP) (Rhythm Of Chloroplast 15, GARP domain, M377-M445) (C. reinhardtii); assay: SEC-SAXS; mixture of GST-ROC15(GARP motif only) and CraCRY; Superdex 200, 50 mM HEPES pH 7.4, 150 mM NaCl, 5% glycerol, 25 °C; data compared with a docked model; both purified
[4] = molecular target: CraCRY::mCitrine(N) (C. reinhardtii); assay: split reporter; BiFC with split mCitrine in live C. reinhardtii cells, read by fluorescence-lifetime imaging; dark
[5] = molecular target: CraCRY::mCitrine(N) (C. reinhardtii); assay: split reporter; BiFC with split mCitrine in live C. reinhardtii cells, read by fluorescence-lifetime imaging; lit (blue light)

Molecule | binding [1] | binding [2] | binding [3] | binding [4] | binding [5]
His-tag-fused full-length wild-type CraCRY (C. reinhardtii animal-like cryptochrome) | no binding (only in the dark) | binds | binds | – | –
ROC15::mCitrine(C) (full-length ROC15 labeled with split mCitrine C-terminal) (protein, UniProt B1B5J3 1-631) MAFDASGALQSCYGAKEDANMDPAAGLVPLTSSLIPPLLAHAFALPQLAQAPAPAQLQPQATAQGYYGSMLSPALMGALGYATGASYAPVQQQQPSHLASLQYGYLHALATASQQQQQQQQQQQHSAAALLAHAHNAAALAAVRAGQATSSAMSHPLPPAASADTGSARGAGPSASEPERAASASVATNSSGSALRGSSASYGSAAAAAAYAHPLMGLYAALSQQQQQAAAYGASPANSYGAMAPFTTHLHPAYYARPQDAGQAAAAAAAAAAAAGAYGYAQPTASYGSSFGHPASSYGGAPSSILDFSSSLAAAYRPVAMPAMPAASALAAAAAVAAAAGAMPQTSQSVGMTGAVAAGGGANGAVSSLGGGAAGMMGEEYADDGTTRAVKRPRLVWTPQLHRKFESAVIKLGEDKAVPKTIMQEMNIDGLTRENVASHLQKYRMIKRRDVTGTSSDGGRDSGTTAAPTSAGTAAAAQRQAQQQQQRPSDGATAADGTAGCSPAAVSSPAVAAAAPPSTAAAAATPSAPHSAHKPSTHGQGSSGSGGSGCGGSGSGSGGHGSGSSARAGSKRSEPEPPSRPTPQRAVAVTEAALASSAHPAGSSGSGRNSAGGSAAAATAAAAGNGVAVMA | – | – | – | no binding (only in the dark) | binds

No constants are given. Whether binding was seen depends on the method and setting. For some assays here: Binding calls can cover weak binding; strength is not graded here. For some assays here: Sequences can lack the tags named with a protein. For some assays here: In cells and extracts the contact can be indirect.
